Experimental data reported in paper PMC10618185.

Columns and labels:
[1] = biological target: T1, HA-VPS39 (human (cDNA from HeLa Kyoto cells)) (UniProt Q96JC1); test: affinity purification with mass spectrometry; WT HeLa cells with single expression of Myc- or HA-tagged bait; IP with anti-Myc or anti-HA antibodies and magnetic beads; eluate resolved by SDS-PAGE, in-gel trypsin digestion, LC-MS/MS (MASCOT, Scaffold 5); high probability threshold
T1 sequence: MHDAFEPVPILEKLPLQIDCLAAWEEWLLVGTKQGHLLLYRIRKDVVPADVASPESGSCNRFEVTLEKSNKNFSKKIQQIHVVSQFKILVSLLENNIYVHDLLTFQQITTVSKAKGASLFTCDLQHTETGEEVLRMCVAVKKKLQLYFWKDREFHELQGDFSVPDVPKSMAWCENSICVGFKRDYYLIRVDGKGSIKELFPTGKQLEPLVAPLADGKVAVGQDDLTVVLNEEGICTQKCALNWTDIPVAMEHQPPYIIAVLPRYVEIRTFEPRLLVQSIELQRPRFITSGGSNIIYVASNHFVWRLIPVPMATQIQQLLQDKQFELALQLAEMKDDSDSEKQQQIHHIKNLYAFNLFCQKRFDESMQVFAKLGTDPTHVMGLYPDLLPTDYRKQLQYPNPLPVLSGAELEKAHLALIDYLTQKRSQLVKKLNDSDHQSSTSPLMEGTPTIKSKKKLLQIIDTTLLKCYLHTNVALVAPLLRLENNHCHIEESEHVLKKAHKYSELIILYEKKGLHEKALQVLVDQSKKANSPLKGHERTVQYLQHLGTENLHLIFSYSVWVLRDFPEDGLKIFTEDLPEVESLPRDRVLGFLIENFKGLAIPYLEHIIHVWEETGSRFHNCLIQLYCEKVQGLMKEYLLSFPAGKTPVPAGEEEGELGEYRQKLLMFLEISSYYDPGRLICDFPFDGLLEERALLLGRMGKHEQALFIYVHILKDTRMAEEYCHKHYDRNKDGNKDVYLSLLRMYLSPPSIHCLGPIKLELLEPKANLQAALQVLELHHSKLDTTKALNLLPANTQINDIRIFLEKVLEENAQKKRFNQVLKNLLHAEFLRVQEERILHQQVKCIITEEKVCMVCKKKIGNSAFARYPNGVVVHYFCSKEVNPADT

[2] = biological target: T2, Myc-VPS8 (human (cDNA from HeLa Kyoto cells)) (UniProt Q8N3P4); test: as above
T2 sequence: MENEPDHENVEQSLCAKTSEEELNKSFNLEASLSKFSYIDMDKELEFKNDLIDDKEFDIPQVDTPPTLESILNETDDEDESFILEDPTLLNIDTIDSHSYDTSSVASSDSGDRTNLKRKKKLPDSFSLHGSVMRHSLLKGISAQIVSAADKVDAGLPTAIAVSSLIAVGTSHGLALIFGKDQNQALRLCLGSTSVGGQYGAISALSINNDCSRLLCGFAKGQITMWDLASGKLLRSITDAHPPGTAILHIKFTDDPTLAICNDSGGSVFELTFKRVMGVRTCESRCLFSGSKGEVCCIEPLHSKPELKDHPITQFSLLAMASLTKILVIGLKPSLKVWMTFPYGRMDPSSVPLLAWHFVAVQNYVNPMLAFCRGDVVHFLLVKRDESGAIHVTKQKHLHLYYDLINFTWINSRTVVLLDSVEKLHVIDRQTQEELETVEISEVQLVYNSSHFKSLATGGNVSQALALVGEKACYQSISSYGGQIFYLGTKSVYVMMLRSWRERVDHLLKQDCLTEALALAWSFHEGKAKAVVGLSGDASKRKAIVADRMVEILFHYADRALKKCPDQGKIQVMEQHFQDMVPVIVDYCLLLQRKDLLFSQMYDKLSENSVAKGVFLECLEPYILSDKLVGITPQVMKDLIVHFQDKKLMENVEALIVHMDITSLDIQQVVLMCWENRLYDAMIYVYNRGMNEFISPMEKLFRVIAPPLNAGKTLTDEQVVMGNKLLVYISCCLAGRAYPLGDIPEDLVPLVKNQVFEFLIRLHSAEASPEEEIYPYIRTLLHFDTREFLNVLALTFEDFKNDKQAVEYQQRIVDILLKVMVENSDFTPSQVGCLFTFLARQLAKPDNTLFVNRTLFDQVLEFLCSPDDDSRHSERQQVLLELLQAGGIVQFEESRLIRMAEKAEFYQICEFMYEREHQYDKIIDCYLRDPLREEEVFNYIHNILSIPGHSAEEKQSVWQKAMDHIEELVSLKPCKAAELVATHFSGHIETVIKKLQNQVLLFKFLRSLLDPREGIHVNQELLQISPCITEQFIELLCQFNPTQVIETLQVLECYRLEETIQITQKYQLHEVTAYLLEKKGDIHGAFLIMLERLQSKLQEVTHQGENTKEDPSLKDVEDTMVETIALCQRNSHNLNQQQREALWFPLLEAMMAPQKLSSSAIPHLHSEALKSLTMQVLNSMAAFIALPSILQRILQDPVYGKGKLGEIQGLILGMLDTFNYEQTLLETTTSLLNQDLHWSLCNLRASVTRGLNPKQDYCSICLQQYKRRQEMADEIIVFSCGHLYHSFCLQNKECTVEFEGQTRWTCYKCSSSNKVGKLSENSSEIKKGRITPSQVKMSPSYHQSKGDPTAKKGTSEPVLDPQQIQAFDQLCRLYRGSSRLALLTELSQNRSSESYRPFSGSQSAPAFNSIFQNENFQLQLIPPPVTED

binding [1]: no binding
binding [2]: binds
B1: endogenous VPS3 (protein, UniProt Q8WUH2 1-860)
chain: MMSIKAFTLVSAVERELLMGDKERVNIECVECCGRDLYVGTNDCFVYHFLLEERPVPAGPATFTATKQLQRHLGFKKPVNELRAASALNRLLVLCDNSISLVNMLNLEPVPSGARIKGAATFALNENPVSGDPFCVEVCIISVKRRTIQMFLVYEDRVQIVKEVSTAEQPLAVAVDGHFLCLALTTQYIIHNYSTGVSQDLFPYCSEERPPIVKRIGRQEFLLAGPGGLGMFATVAGISQRAPVHWSENVIGAAVSFPYVIALDDEFITVHSMLDQQQKQTLPFKEGHILQDFEGRVIVATSKGVYILVPLPLEKQIQDLLASRRVEEALVLAKGARRNIPKEKFQVMYRRILQQAGFIQFAQLQFLEAKELFRSGQLDVRELISLYPFLLPTSSSFTRSHPPLHEYADLNQLTQGDQEKMAKCKRFLMSYLNEVRSTEVANGYKEDIDTALLKLYAEADHDSLLDLLVTENFCLLTDSAAWLEKHKKYFALGLLYHYNNQDAAAVQLWVNIVNGDVQDSTRSDLYEYIVDFLTYCLDEELVWAYADWVLQKSEEVGVQVFTKRPLDEQQKNSFNPDDIINCLKKYPKALVKYLEHLVIDKRLQKEEYHTHLAVLYLEEVLLQRASASGKGAEATETQAKLRRLLQKSDLYRVHFLLERLQGAGLPMESAILHGKLGEHEKALHILVHELQDFAAAEDYCLWCSEGRDPPHRQQLFHTLLAIYLHAGPTAHELAVAAVDLLNRHATEFDAAQVLQMLPDTWSVQLLCPFLMGAMRDSIHARRTMQVALGLARSENLIYTYDKMKLKGSSIQLSDKKLCQICQNPFCEPVFVRYPNGGLVHTHCAASRHTNPSSSSPGTRT

Results are given in words; binding and its absence hold for the method and conditions named. Binding seen in cells or lysates may run through a third protein. A yes stands for co-enrichment or nearness to the bait. Other partners may have been found. For some assays here: No binding means not detected with the bait. Where a sequence is shown, tags or fusion partners need not be part of it.
